Source: PubChem BioAssay AID1794844 (National Center for Advancing Translational Sciences (NCATS), 2023)
Fewer than 10 of roughly 2,800 compounds were called active. Not shown: some 7% with an inconclusive outcome. Calls follow the shape of the dose curve; as a rule, active = well fitted inhibition curve with a large enough effect; inconclusive = small, poorly fitted or top-dose-only effect; inactive = no such curve, though single readings can be large or run the other way. This is one part of the list.

Chains of the proteins cited; added tags and fusions are not shown. Lines headed by an entry give the natural chain unless they say otherwise; changes in a name come on top.
UniProt C7C422: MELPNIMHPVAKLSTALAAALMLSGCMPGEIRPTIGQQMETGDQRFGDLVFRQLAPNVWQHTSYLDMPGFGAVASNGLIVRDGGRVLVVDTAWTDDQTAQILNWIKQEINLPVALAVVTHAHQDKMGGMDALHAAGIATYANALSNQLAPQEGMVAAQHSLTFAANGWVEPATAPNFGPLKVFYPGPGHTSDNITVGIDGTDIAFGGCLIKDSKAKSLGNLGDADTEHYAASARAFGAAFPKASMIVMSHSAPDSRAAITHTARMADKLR

Molecular target: Metallo-beta-lactamase type 2 (Klebsiella pneumoniae) (UniProt C7C422)
Assay: qHTS to identify inhibitors of the New Delhi Metallo-beta-lactamase (NDM): Nitrocefin screen against the machine-based learning selections. Also: % of control where 0% means no effect.
Conditions: NDM-1 enzyme, nitrocefin hydrolysis, absorbance 485 nm; activity, negative = inhibition: at the top concentration
Summary of the method: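 NDM-1 (2 nM final) in 50 mM HEPES pH 7.0, 1 uM Zn2SO4, 0.01% Tween20 was preincubated with compounds for >30 min. Nitrocefin (16.7 uM final) was read at 485 nm after 15 min, and meropenem (50 uM final) at 300 nm after 30 min.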

activity, negative = inhibition, inactive:
Cc1cccc(OCC2CCCN(C(=O)c3sc(C(C)C)nc3C)C2)c1 (configuration not stated) -8.31%
CN(C)Cc1nnc(C2CCN(C(=O)Nc3cccc(C#N)c3)CC2)n1C -6.13%
Cc1noc(C)c1-c1cnc2[nH]cc(CC(=O)NCc3cccnc3)c2c1 -1.69% [at 57.5 µM]
CN1C(=O)COC[C@@H]1[C@H](O)c1ccc(NC(=O)Nc2ccccc2)cc1 -8.66% [at 57.5 µM]
Cc1cc(-c2cccc(CCOc3cnc4c(ccn4CC(=O)O)c3)c2)ccn1 3.49% [at 57.5 µM]
O=C1[C@@H]2C[C@@H](CN2Cc2ccccc2)Oc2ccccc2N1Cc1ccccc1 -0.2% [at 57.5 µM]
O=C(CN1C(=O)C2(CCNCC2)Nc2ccccc21)NC1CCCCCC1 -0.445%
O=C(CCC[C@H]1NC[C@@H]2C[C@H]1CN(Cc1ccccc1)C2)NCCc1cccnc1 13.8%
COC[C@H]1CCCN1C(=O)C[C@@H]1O[C@H](CNS(C)(=O)=O)[C@@H](O)[C@H]1O -7.39% [at 57.5 µM]
CC(C)c1ccc(NC2=N[C@H]3[C@@H](O)[C@H](O)C[C@H](C(=O)NC4CCCC4)[C@H]3S2)cc1 0.685% [at 57.5 µM]
COc1cccc(Nc2ncc3c(n2)C(C)(C(=O)Nc2nc(C)cs2)CC3)c1 (configuration not stated) -1.58% [at 57.5 µM]
Cc1ccsc1C(=O)N1CCN(c2cc(-c3ccccc3)[nH]n2)CC1 -1.86%
O=C(c1ccn[nH]1)N1CCN(Cc2cnn3cccnc23)CC(O)C1 (configuration not stated) -3.88%
CC1(C(=O)NCc2ccncc2)CCCc2cnc(Nc3ccccc3)nc21 (configuration not stated) 0.595% [at 57.5 µM]
CCN(CC)C(=O)[C@@H]1CCC[C@@H](NC2CCOCC2)CN(C)C(=O)C1 -3.24% [at 57.5 µM]
O=C(Cc1c[nH]c2ncc(-c3cccnc3)cc12)Nc1ccccc1 -7.98% [at 57.5 µM]
CC[C@H]1CN(C(=O)Nc2cccc(C(F)(F)F)c2)CC[C@H]1CC(=O)NC1CC1 9.41% [at 57.5 µM]
CN1C(=O)[C@@H]2C[C@@H](O)CN2C2(CN(CC3CCCCC3)C2)C1=O 0.294% [at 57.5 µM]
COc1ccc(CC2(CO)CCNCC2)cc1 -5.17%
CC1(C)[C@H](Cc2cc(COc3ccccc3)on2)C[C@@H]1NC(=O)Nc1ccccc1 4.01% [at 57.5 µM]
O=c1c2nc(Nc3cccc(F)c3)ccc2ncn1Cc1ccccc1 -1% [at 57.5 µM]
NC(=O)Cc1c[nH]c2ncc(-c3ccc(Oc4ccccc4)cc3)cc12 3.53% [at 57.5 µM]
COc1ccc(C2Cn3nnc(C(=O)N4CCN(C(=O)c5cc(F)ccc5Cl)CC4)c3CO2)cc1 (configuration not stated) 2.91%
CCNC(=O)N1C[C@@H](F)[C@@H](OCc2nc3ccc(C)cc3[nH]2)C1 6.72% [at 57.5 µM]
COc1ccccc1-n1cc(-c2ccnc(N3CC(n4cccn4)C3)n2)cn1 1.36%
COc1ccc(CN2C[C@H]3CN(Cc4ccc5c(c4)OCCO5)CCN3C2=O)cc1 4.28% [at 57.5 µM]
O=C(NCCc1ccc(F)cc1)C1CN(c2ccccc2)C(=O)N1 (configuration not stated) -12.5% [at 57.5 µM]
CCCC1c2nccn2CCCN1C(=O)c1ccoc1C (configuration not stated) -4.1%
CC(=O)N[C@@H]1C=C[C@@H](c2c(C)nn(-c3ccc(C)c(Cl)c3)c2C)C1 2.31% [at 57.5 µM]
Cc1c(-c2ccc(F)cc2)[nH]c2ccc(CNC(=O)c3n[nH]c4c3CCCC4)cc12 -3.45%
CC1=C[C@@H](CNC(=O)c2ccc(F)cc2)[C@H](C(C)C)C[C@H]1Cc1nnc(-c2ccncc2)o1 -0.0763%
CC(=O)N[C@H]1C[C@@H](Cc2cc(CN3CCCCC3)on2)C1(C)C 1.39% [at 57.5 µM]
O=C1Cc2c(-c3cccc4ccccc34)n[nH]c2CN1Cc1ccccc1 -0.476% [at 57.5 µM]
O=C1[C@H]2CN(S(=O)(=O)c3ccc(F)cc3)CCN2C(=O)N1CCO -0.29% [at 57.5 µM]
COc1ccccc1-c1[nH]nc2ncc(C(=O)NCCc3ccccn3)nc12 -18.2% [at 57.5 µM]
CC(C)(O)CCc1cccc(C(=O)NCC(O)c2ccccc2Cl)c1 (configuration not stated) -1.23%
CCn1nc(CC(C)C)cc1C(=O)N1CCN(CCn2cccc2)CC1 -28%
CC(=O)c1ccc(NC(=O)N2C[C@@H]3C[C@H](C2)c2ccc(NC(=O)C4CCCCC4)c(=O)n2C3)cc1 -1.96%
CS(=O)(=O)N1C[C@H]2CCN(C(=O)c3ncccc3F)C[C@H]21 -3.35%
O=C(c1cn2ccccc2n1)N1C[C@@H](CO)[C@H](c2ccncc2)C1 -5.49%
CCC(=O)N1CCC(c2nc(C3CCOCC3)no2)C1 (configuration not stated) -0.448%
COc1cccc(C(=O)N2CCOC[C@H](Oc3cccnc3)C2)c1 -4.33% [at 57.5 µM]
c1ccc(-c2cc3c(cn2)CN(Cc2ccc4[nH]ccc4c2)CCN3)cc1 6.79% [at 57.5 µM]
Cc1oc(C(O)c2cccc(O)c2)nc1C(=O)Nc1ccc2c(c1)CNC2=O (configuration not stated) 7.37% [at 57.5 µM]
COc1ccc(CN2CCNc3cc(Nc4ccccc4)ncc3C2)cc1 3.46% [at 57.5 µM]
CC(C)=CC(=O)N1CC[C@H](NC(=O)Nc2ccc(F)cc2F)[C@H]1C(=O)N[C@@H](Cc1cccs1)C(N)=O -2.77%
CC(C)(C)c1ccc(-c2cc(C[C@H]3CNCC[C@H]3CC(=O)NCc3ccc(F)cc3)no2)cc1 2.12%
O=C(NC1CC(c2nnc(CO)n2C2CC2)C1)c1ccc(F)cc1Cl (configuration not stated) 0.365%
O=C1COc2cc(C(=O)NCC3CCOc4ccccc4C3)ccc2N1 (configuration not stated) 3.67%
Cn1cc(CN2CCOC[C@H](Oc3ccc(S(C)(=O)=O)cc3)C2)c2ccccc21 8.21% [at 57.5 µM]
OCC1CNCCC12CCN(Cc1ccc3ccccc3c1)CC2 (configuration not stated) -5.86%
OC(c1ccccc1)c1nc(Nc2ccc(Cl)cc2F)n[nH]1 (configuration not stated) 4.51% [at 57.5 µM]
Cc1nc(N)nc(C)c1CC(=O)N1CC[C@@H](NC(=O)c2cccnc2)[C@H](O)C1 -0.0238%
CN(C)C(C(=O)N1CCN(Cc2nccn2C)CC1)c1cccc(F)c1 (configuration not stated) 0.958%
CCc1nncn1C1CCN(S(=O)(=O)c2ccc(F)cc2)CC1 0.342%
COc1ccccc1C(=O)N[C@H]1[C@H](O)[C@H](O)C[C@@H]1c1ccc(N2CCOCC2)nc1 6% [at 57.5 µM]
COc1ccc(CN2C[C@H]3CN(Cc4cnn(C)c4)CCN3C2=O)cc1 7.09% [at 57.5 µM]
NC(=O)NCc1cn(C2CCN(Cc3cc4ccccc4s3)CC2)nn1 -20.2%
Cc1noc2c(-c3cccc(O)c3)cc(-c3ccccc3)nc12 -0.559% [at 57.5 µM]
O=C(c1cccnc1)N1CC[C@H](c2nnc(Cc3ccccc3)o2)C1 -2.68% [at 57.5 µM]
CN(C)CCN(C)CC[C@H]1CN(C(=O)c2ccc(F)cc2)CC[C@H]1CC(=O)O -14.9% [at 57.5 µM]
COc1ccc(CN2CC3(C2)C(=O)N(Cc2cccc(Cl)c2)C(=O)[C@@H]2C[C@@H](O)CN23)c2ccccc12 -1.33%
CC(C)C[C@@H]1N[C@H](C(=O)NC(C)C)Cc2cn(Cc3ccncc3)c3cccc1c23 -5.22% [at 57.5 µM]
CCn1cc(CN2CCC(Oc3ccc4ccccc4c3)(C(=O)O)CC2)cn1 16.2%
Oc1ccccc1CN1CCNc2cc(Nc3ccccc3)ncc2C1 4.38% [at 57.5 µM]
CC(C)c1cc(CN(C)C(=O)CN2C(=O)COc3cccnc32)on1 -2.41%
Fc1ccc(-c2nnc3ccc(NC4CCC4)nn23)nc1 -8.05% [at 76.7 µM]
COc1cc2c(cc1OC)CN(C(=O)C[C@@H]1CCNC[C@@H]1Cc1cc(CN3CCCCC3)on1)CC2 6.01%
CC1(C(=O)NCc2ccccc2)COCc2cnc(Nc3ccccc3)nc21 (configuration not stated) 0.282% [at 57.5 µM]
CSCC(=O)Nc1ccc2n(c1=O)C[C@H]1C[C@@H]2CN(C(=O)c2ccc(-c3ccccc3)cc2)C1 5.52%
O=C(c1ccccc1Cl)N1CCC2(CC1)Cc1ccccc1NC2=O 1.65%
CCn1cc(C(=O)N2CCCC(CCc3cccc(F)c3)C2)cn1 (configuration not stated) -0.423%
Cc1ccc(N2CCN(C(=O)C3CCCN(c4cnn(Cc5ccccc5)c(=O)c4)C3)CC2)cc1 (configuration not stated) -5.13%
Cc1ccsc1-c1[nH]nc2ncc(-c3ccccc3O)nc12 -4.04% [at 57.5 µM]
COc1cccc(-c2cc(C(=O)O)cc(S(=O)(=O)NC(C)C)c2)c1 0.733%
CC[C@H]1CN(Cc2ccc(OC)cc2O)CC[C@H]1CC(=O)N(C)CC#N 1.85% [at 57.5 µM]
CCOCCN1C(=O)COC[C@@H]1[C@H](O)c1ccc(NC(=O)Nc2ccccc2)cc1 -10.5% [at 57.5 µM]
NC(=O)CN1C(=O)[C@@H]2CN(C(=O)CC3(CC(=O)O)CCCC3)CCN2C1=O 0.97% [at 57.5 µM]
O=c1c2nc(NCc3cccs3)ccc2ncn1Cc1ccccc1 0.467% [at 57.5 µM]
NC(=O)c1cccc(-c2cc(-c3cccnc3)c3cncn3c2)c1 10% [at 57.5 µM]
Cc1ccc2c(c1)C(C[C@H]1CN(C(=O)NC(C)C)CC[C@H]1CC(=O)O)=NCC2 -8.19% [at 57.5 µM]
CC(C)NC(=O)CC[C@@H]1CNC(=O)[C@@H]2C[C@H](NCc3ccc(CO)o3)CN12 -20.1% [at 57.5 µM]
NC(=O)Cc1c[nH]c2ncc(-c3cccc(F)c3)cc12 7.99% [at 76.7 µM]
C[C@H]1[C@@H]2[C@H]3OC(=O)[C@@H](C)[C@@H]3CC[C@@]2(C)CC[C@@H]1NC(=O)Cc1ccccc1 0.93% [at 57.5 µM]
CN1C(=O)C(c2ccccc2)CC12CCN(C(=O)c1cccc(F)c1)CC2 (configuration not stated) 5.03%
O=C(CC[C@@H]1CNC(=O)[C@@H]2C[C@H](NCc3ccc(F)cc3)CN12)NCc1ccccc1 -3.97% [at 57.5 µM]
COC[C@@H]1CN(C(=O)Cc2ccc(OC)cc2)C[C@H]1c1nc(C)no1 -1.17%
O=C(NCC1(O)CCCCC1)c1ccc2nc(Cc3ccccc3F)oc2c1 -3.38%
OC1(CNCCc2nc(-c3cccnc3)n[nH]2)CNCCOC1 (configuration not stated) 10.7%
COc1ccc(-c2ccnc(N[C@H]3CO[C@H]4[C@@H]3OC[C@@H]4NC(=O)c3ccc(C)cc3)n2)cc1 -10.1%
COc1ccc(Cl)cc1-c1ccc2c(c1)C(=O)N1CC[C@H](N)C[C@H]1C(=O)N2 -2.65% [at 57.5 µM]
COCCCNC(=O)N1CCc2nn(CC3CC3)c(=O)n2CC1 -3.32%
O=C(O)c1ccc(CN2CCC[C@H]2c2nc(-c3ccc(F)cn3)no2)cc1 -13% [at 57.5 µM]
O=C(c1ccccc1-n1cncn1)N1CCC(N2CCCC2=O)CC1 -0.296%
O=C(N[C@@H](CO)c1ccccc1)c1cc(COc2cccc(F)c2)[nH]n1 -0.764%
Cc1nc2ccc(CNC(=O)c3cccc(CCC(C)(C)O)c3)cc2[nH]1 2.21%
CN1[C@@H](CCC(=O)N2CCN(c3ccccc3)CC2)CNC(=O)[C@@H]2[C@H]1CCN2Cc1ccccc1 -13.7%

Reprinted at random: 3 records from the list.
activity, negative = inhibition, inactive:
CC(C)NC(=O)CC[C@@H]1CNC(=O)[C@@H]2C[C@H](NCc3ccc(CO)o3)CN12 -20.1% [at 57.5 µM]
O=C1COc2cc(C(=O)NCC3CCOc4ccccc4C3)ccc2N1 (configuration not stated) 3.67%
O=C(c1cn2ccccc2n1)N1C[C@@H](CO)[C@H](c2ccncc2)C1 -5.49%

Some of these compounds in order of SMILES length, falling:
activity, negative = inhibition, inactive:
COc1ccc(C2Cn3nnc(C(=O)N4CCN(C(=O)c5cc(F)ccc5Cl)CC4)c3CO2)cc1 (configuration not stated) 2.91%
O=C(N[C@@H](CO)c1ccccc1)c1cc(COc2cccc(F)c2)[nH]n1 -0.764%
CCn1cc(C(=O)N2CCCC(CCc3cccc(F)c3)C2)cn1 (configuration not stated) -0.423%
